Results are given in words; binding and its absence hold for the method and conditions named. Binding seen in cells or lysates may run through a third protein. Some binding calls cover weakened binding; strength is not graded here.

Chains of the proteins cited; added tags and fusions are not shown.
UniProt Q02248: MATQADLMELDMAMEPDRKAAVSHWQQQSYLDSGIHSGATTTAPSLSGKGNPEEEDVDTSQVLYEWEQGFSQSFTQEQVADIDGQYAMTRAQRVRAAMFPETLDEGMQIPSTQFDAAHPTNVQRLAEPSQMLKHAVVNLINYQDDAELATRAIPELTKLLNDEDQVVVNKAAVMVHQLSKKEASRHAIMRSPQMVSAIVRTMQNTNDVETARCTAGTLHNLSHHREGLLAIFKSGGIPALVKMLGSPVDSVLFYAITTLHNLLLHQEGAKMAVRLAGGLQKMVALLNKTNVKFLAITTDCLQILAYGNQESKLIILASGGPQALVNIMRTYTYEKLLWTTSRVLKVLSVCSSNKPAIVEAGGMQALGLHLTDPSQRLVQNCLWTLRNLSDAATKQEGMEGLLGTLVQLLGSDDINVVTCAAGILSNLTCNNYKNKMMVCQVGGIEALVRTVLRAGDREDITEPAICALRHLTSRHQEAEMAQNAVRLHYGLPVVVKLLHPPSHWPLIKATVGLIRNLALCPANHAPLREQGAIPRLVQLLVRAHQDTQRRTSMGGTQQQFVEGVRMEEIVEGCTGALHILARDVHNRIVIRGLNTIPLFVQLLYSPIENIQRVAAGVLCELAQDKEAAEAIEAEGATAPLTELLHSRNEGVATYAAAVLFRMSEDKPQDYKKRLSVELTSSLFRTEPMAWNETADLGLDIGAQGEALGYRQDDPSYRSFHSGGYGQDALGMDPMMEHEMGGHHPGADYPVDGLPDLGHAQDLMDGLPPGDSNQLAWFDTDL
UniProt P45481: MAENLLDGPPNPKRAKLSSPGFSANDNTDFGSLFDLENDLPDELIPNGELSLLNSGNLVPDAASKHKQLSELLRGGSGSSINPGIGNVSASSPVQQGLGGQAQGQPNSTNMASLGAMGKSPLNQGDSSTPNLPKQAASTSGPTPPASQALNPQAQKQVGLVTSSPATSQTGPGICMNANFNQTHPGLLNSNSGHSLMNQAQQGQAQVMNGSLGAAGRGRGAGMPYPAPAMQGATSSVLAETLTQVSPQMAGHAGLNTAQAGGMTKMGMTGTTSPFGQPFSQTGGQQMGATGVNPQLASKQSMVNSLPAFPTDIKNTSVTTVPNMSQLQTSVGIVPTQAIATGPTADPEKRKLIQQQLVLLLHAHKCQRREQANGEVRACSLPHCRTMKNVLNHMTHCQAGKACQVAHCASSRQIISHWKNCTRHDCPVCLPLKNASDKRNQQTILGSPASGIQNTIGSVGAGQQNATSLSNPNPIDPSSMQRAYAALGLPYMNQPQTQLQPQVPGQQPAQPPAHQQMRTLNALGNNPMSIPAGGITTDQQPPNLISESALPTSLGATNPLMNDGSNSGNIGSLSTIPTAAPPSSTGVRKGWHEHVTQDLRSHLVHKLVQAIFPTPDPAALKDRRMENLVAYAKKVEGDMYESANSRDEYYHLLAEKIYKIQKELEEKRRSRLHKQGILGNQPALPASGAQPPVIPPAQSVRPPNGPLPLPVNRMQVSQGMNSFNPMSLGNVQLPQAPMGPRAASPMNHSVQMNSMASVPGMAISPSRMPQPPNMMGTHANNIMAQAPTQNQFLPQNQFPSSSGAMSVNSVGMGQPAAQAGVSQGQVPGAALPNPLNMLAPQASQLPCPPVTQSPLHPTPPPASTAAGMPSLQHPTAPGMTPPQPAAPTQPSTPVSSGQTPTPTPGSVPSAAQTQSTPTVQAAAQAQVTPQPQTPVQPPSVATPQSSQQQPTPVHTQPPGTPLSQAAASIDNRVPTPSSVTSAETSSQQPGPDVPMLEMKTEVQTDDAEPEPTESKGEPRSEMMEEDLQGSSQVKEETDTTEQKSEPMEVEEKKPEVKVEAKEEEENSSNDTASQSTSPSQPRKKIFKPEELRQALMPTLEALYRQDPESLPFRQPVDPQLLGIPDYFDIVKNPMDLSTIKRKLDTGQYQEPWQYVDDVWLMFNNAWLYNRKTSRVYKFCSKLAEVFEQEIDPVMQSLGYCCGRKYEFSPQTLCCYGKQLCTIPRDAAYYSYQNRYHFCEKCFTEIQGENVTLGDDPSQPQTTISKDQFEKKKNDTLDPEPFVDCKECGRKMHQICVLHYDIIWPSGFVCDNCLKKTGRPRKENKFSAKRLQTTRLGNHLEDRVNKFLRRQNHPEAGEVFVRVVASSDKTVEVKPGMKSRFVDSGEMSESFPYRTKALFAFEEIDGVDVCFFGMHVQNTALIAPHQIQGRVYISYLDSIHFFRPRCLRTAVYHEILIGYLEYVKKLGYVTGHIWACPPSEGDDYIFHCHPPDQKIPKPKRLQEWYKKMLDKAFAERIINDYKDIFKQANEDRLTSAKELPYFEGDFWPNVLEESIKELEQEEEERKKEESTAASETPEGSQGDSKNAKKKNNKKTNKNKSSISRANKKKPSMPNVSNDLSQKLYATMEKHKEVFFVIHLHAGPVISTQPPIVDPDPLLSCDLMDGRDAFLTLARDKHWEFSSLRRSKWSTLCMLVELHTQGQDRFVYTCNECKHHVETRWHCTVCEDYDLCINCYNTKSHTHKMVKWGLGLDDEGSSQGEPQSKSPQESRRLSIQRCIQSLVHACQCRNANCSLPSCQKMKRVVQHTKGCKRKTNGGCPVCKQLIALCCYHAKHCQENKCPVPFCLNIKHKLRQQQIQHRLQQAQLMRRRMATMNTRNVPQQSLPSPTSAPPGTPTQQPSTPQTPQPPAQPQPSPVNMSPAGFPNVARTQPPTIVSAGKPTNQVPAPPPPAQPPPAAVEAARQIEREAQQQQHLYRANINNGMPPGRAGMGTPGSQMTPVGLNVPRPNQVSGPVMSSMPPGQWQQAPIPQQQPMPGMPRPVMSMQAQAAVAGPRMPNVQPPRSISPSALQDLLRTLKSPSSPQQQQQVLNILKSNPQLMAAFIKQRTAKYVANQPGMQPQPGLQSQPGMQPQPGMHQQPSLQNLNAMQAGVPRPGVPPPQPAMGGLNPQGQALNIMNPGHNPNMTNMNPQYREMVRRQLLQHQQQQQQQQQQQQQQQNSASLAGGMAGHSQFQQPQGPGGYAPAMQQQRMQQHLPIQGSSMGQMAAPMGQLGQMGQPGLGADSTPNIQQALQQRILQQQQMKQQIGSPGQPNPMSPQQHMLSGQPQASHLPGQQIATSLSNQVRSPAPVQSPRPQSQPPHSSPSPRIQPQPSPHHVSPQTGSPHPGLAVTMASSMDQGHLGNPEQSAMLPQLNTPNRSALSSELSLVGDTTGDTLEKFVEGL

This test has as its target β-catenin (mouse (endogenous in C2C12)) (UniProt Q02248). Description: co-IP; nuclear extracts (Nuclear Extraction Kit) of proliferating or differentiated C2C12 cells; IP with mouse monoclonal antibodies against β-catenin, KAT2B or CBP; immunoblot with rabbit polyclonal antibodies against active β-catenin, KAT2B and CBP; IgG control. (In western blotting, separated proteins are transferred to a membrane and probed.)

Take “cAMP-response element-binding protein (CREB)-binding protein (CBP) (from UniProt P45481 1-2441)”: the binding entry was “binds”.
